From PubChem BioAssay AID248 (DTP/NCI, 2004)
The list does not hold the whole screen: it gathers tests that were run many times, whatever their T/C, doses with no T/C, and many T/C values between a quarter and a half above the control. Further doses and runs are listed elsewhere. T/C is the treated group as % of the vehicle group. Some entries give survivors of the animals treated and no T/C: the source files T/C as zero there, which appears to mark a toxic dose or a test without result, not a measured value. Some doses without a T/C left all or most animals alive at the check, yet need not have been tolerated: the source hardly ever lists a survival T/C far under the control, and the zero likely stands for such cases as well. Survivors were counted at the toxicity check, usually on the fifth day, unless a day is given; later deaths do not show. Schedules are NCI's codes, read here as Q, the interval in days (D) or hours (H), X, the number of doses. Some schedules carry Z or #; the key to these is not given. Where survival is the endpoint, this PubChem deposit counts one and a half times the control or more as active, and values a quarter to a half above the control carry no call in these data; other NCI protocols may use other cut-offs. Some entries hold several experiments; the values are given in rising order.

Tested on: L1210 leukemia ip in BDF1 mice, survival T/C
Assay: NCI In Vivo Anticancer Drug Screen. Data for tumor model L1210 Leukemia (intraperitoneal) in B6D2F1 (BDF1) mice
Conditions: T/C endpoint: mean survival time, higher T/C = longer survival
[1] = dose: 400.0 mg/kg/injection, schedule: Q04DX003 (ip), vehicle: Klucel (hydroxypropylcellulose) (HPC)

With `CCN(CC)CCOC(=O)C(O)(c1ccccc1)c1ccccc1` as the compound, how does the survivor count (dose: 200.0 mg/kg/injection, schedule: Q04DX002 (ip), vehicle: saline) read?
The survivor count was 1 of 3.

What about the survivor count (dose: 400.0 mg/kg/injection, schedule: Q04DX002 (ip), vehicle: saline) of the same compound?
The survivor count was 0 of 3.

How did the T/C (dose: 0.65 mg/kg/injection, schedule: Q#A X Z (ip), vehicle: saline) turn out when `O=C(Nc1ccc(NC2=NCCN2)cc1)c1ccc(C(=O)Nc2ccc(NC3=NCCN3)cc2)cc1` was run?
Its T/C is 132 and 133 % of control.

What about the T/C (dose: 2.0 mg/kg/injection, schedule: Q01DX001 (ip), vehicle: saline) of the same compound?
Its T/C is 131 % of control.

And the T/C (dose: 8.0 mg/kg/injection, schedule: Q01DX001 (ip), vehicle: saline)?
Its T/C is 134 % of control.

What about the T/C (dose: 9.0 mg/kg/injection, schedule: Q01DX001 (ip), vehicle: saline) of the same compound?
Its T/C is 126 and 135 % of control.

What about the T/C (dose: 9.0 mg/kg/injection, schedule: Q03DX Z (ip), vehicle: saline) of the same compound?
Its T/C is 139 % of control.

And the T/C (dose: 9.0 mg/kg/injection, schedule: Q07DX Z (ip), vehicle: saline)?
The T/C was 146 % of control.

And the T/C (dose: 10.0 mg/kg/injection, schedule: Q02DX004 (im), vehicle: olive oil, sesame oil, peanut oil)?
Its T/C is 147 % of control.

And the T/C (dose: 12.0 mg/kg/injection, schedule: Q01DX001 (ip), vehicle: carboxymethylcellulose (CMC))?
The T/C was 137 and 145 % of control.

What about the T/C (dose: 12.0 mg/kg/injection, schedule: Q01DX001 (ip), vehicle: other) of the same compound?
The T/C was 140 and 143 % of control.

What about the T/C (dose: 14.0 mg/kg/injection, schedule: Q07DX Z (ip), vehicle: saline) of the same compound?
The T/C was 133 % of control.

And the survivor count (dose: 15.0 mg/kg/injection, schedule: Q01DX Z (ip), vehicle: methylcellulose (MC))?
Its survivor count is 0 of 6.

What about the T/C (dose: 16.0 mg/kg/injection, schedule: Q01DX001 (ip), vehicle: saline) of the same compound?
The T/C was 136 % of control.

And the T/C (dose: 16.0 mg/kg/injection, schedule: Q01DX007 (iv), vehicle: saline)?
Its T/C is 136 % of control.

What about the T/C (dose: 16.0 mg/kg/injection, schedule: Q01DX Z (ip), vehicle: saline) of the same compound?
Its T/C is 131 and 134 % of control.

And the T/C (dose: 18.0 mg/kg/injection, schedule: Q01DX001 (ip), vehicle: carboxymethylcellulose (CMC))?
Its T/C is 147 and 149 % of control.

What about the T/C (dose: 18.0 mg/kg/injection, schedule: Q01DX001 (ip), vehicle: other) of the same compound?
The T/C was 147 % of control.

And the T/C (dose: 18.0 mg/kg/injection, schedule: Q01DX001 (ip), vehicle: saline)?
Its T/C is 126 and 130 % of control.

And the T/C (dose: 20.0 mg/kg/injection, schedule: Q01DX001 (im), vehicle: steroid suspending solution)?
Its T/C is 148 % of control.

What about the T/C (dose: 21.0 mg/kg/injection, schedule: Q07DX Z (ip), vehicle: saline) of the same compound?
Its T/C is 132 % of control.

And the T/C (dose: 24.0 mg/kg/injection, schedule: Q01DX001 (ip), vehicle: saline)?
Its T/C is 137 % of control.

And the T/C (dose: 24.0 mg/kg/injection, schedule: Q01DX Z (ip), vehicle: saline)?
The T/C was 132 % of control.

What about the T/C (dose: 26.0 mg/kg/injection, schedule: Q01DX001 (ip), vehicle: carboxymethylcellulose (CMC)) of the same compound?
The T/C was 149 % of control.

What about the survivor count (dose: 30.0 mg/kg/injection, schedule: Q01DX Z (ip), vehicle: methylcellulose (MC)) of the same compound?
The survivor count was 0 of 6.

What about the T/C (dose: 36.0 mg/kg/injection, schedule: Q01DX001 (ip), vehicle: saline, evaluated on day 30) of the same compound?
The T/C was 144 and 194 % of control.

And the T/C (dose: 36.0 mg/kg/injection, schedule: Q01DX001 (ip), vehicle: saline, run until all animals had died)?
The T/C was 137 and 252 % of control.

What about the T/C (dose: 36.0 mg/kg/injection, schedule: Q01DX007 (iv), vehicle: saline) of the same compound?
The T/C was 141 % of control.

What about the T/C (dose: 36.0 mg/kg/injection, schedule: Q01DX Z (ip), vehicle: saline) of the same compound?
The T/C was 126 and 141 % of control.

And the survivor count (dose: 40.0 mg/kg/injection, schedule: Q01DX010 (sc), vehicle: olive oil, sesame oil, peanut oil)?
Its survivor count is 6 of 6.

What about the T/C (dose: 54.0 mg/kg/injection, schedule: Q01DX Z (ip), vehicle: saline) of the same compound?
The T/C was 135 % of control.

And the survivor count (dose: 60.0 mg/kg/injection, schedule: Q01DX Z (ip), vehicle: methylcellulose (MC))?
The survivor count was 3 of 6.

What about the survivor count (dose: 80.0 mg/kg/injection, schedule: Q01DX010 (sc), vehicle: olive oil, sesame oil, peanut oil) of the same compound?
The survivor count was 6 of 6.

And the survivor count (dose: 120.0 mg/kg/injection, schedule: Q01DX Z (ip), vehicle: methylcellulose (MC))?
The survivor count was 5 of 6.

And the survivor count (dose: 120.0 mg/kg/injection, schedule: Q01DX Z (ip), vehicle: saline)?
The survivor count was 6 of 6.

And the T/C (dose: 135.0 mg/kg/injection, schedule: Q01DX001 (ip), vehicle: carboxymethylcellulose (CMC))?
The T/C was 134 % of control.

And the T/C (dose: 135.0 mg/kg/injection, schedule: Q01DX001 (ip), vehicle: other)?
Its T/C is 131 % of control.

What about the T/C (dose: 144.0 mg/kg/injection, schedule: Q01DX001 (ip), vehicle: saline, evaluated on day 30) of the same compound?
Its T/C is 140 and 172 % of control.

What about the T/C (dose: 144.0 mg/kg/injection, schedule: Q01DX001 (ip), vehicle: saline, run until all animals had died) of the same compound?
The T/C was 160 and 301 % of control.

And the T/C (dose: 288.0 mg/kg/injection, schedule: Q01DX001 (ip), vehicle: saline)?
The T/C was 128 % of control.

And the T/C (dose: 288.0 mg/kg/injection, schedule: Q01DX010 (oral), vehicle: saline)?
Its T/C is 131 and 139 % of control.

How did the survivor count (dose: 400.0 mg/kg/injection, schedule: Q01DX001 (ip), vehicle: Klucel (hydroxypropylcellulose) (HPC)) turn out when `CC(C)C(C)/C=C/C(C)C1CCC2C3CCC4CC(O)CCC4(C)C3CCC12C` (stereo not drawn) was run?
Its survivor count is 3 of 3.

Which survivor count [1] does the source give for `CCCCS/C=C1/CC2(C)C(CCC3C4CCC(O)C4(C)CCC32)CC1=O` (stereo not drawn) here?
The survivor count was 6 of 6.

How did the survivor count (dose: 400.0 mg/kg/injection, schedule: Q01DX009 (ip), vehicle: gum acacia) turn out when `CC(=O)c1ccc(Br)cc1OCC(=O)O` was run?
The survivor count was 3 of 6.

What does the source list for `NC1=NC(CCc2ccccc2)N(c2ccc3ccccc3c2)C(N)=N1` (stereo not drawn)?
survivor count (dose: 18.8 mg/kg/injection, schedule: Q01DX009 (ip), vehicle: saline sonified): 0 of 6; survivor count (dose: 37.5 mg/kg/injection, schedule: Q01DX001 (ip), vehicle: saline): 1 of 6; survivor count (dose: 75.0 mg/kg/injection, schedule: Q01DX001 (ip), vehicle: saline): 0 of 6

Which results are given for `CC1(C)N=C(N)N=C(N)N1c1cccc(OCCCOc2ccc(NC(=O)CBr)cc2)c1`?
survivor count (dose: 150.0 mg/kg/injection, schedule: Q01DX009 (ip), vehicle: saline): 2 of 6; survivor count (dose: 400.0 mg/kg/injection, schedule: Q01DX001 (ip), vehicle: saline): 0 of 4

What does the source list for `CCOc1cc(/C=N\Nc2nncn2N)c(C)cc1N(CCCl)CCCl`?
T/C (dose: 2.2 mg/kg/injection, schedule: Q01DX015 (ip), vehicle: carboxymethylcellulose (CMC)): 134 % of control; T/C (dose: 3.4 mg/kg/injection, schedule: Q01DX015 (ip), vehicle: carboxymethylcellulose (CMC)): 125 % of control; T/C (dose: 5.2 mg/kg/injection, schedule: Q01DX015 (ip), vehicle: carboxymethylcellulose (CMC)): 112, 126, 130, 140 % of control; T/C (dose: 9.0 mg/kg/injection, schedule: Q01DX015 (ip), vehicle: carboxymethylcellulose (CMC)): 129 and 135 % of control; survivor count (dose: 25.0 mg/kg/injection, schedule: Q01DX015 (ip), vehicle: carboxymethylcellulose (CMC)): 6 of 6; T/C (dose: 33.0 mg/kg/injection, schedule: Q01DX001 (ip), vehicle: carboxymethylcellulose (CMC)): 129 % of control; T/C (dose: 50.0 mg/kg/injection, schedule: Q01DX001 (ip), vehicle: carboxymethylcellulose (CMC)): 132 % of control; T/C (dose: 75.0 mg/kg/injection, schedule: Q01DX001 (ip), vehicle: carboxymethylcellulose (CMC)): 126 % of control; survivor count (dose: 400.0 mg/kg/injection, schedule: Q01DX001 (ip), vehicle: carboxymethylcellulose (CMC)): 1 of 4

Which T/C (dose: 200.0 mg/kg/injection, schedule: Q01DX009 (ip), vehicle: saline with Tween-80) does the source give for `NC(=Nc1ccc(N)cc1)C(N)=Nc1ccc(N)cc1` here?
Its T/C is 137 % of control.

`COc1ccc(P(=NS(=O)(=O)c2ccc(C)cc2)(c2ccc(OC)cc2)c2ccc(OC)cc2)cc1` was tested. Which survivor count [1] did it give?
Its survivor count is 6 of 6.

Which survivor count (dose: 100.0 mg/kg/injection, schedule: Q04DX002 (ip), vehicle: saline with Tween-80) does the source give for `N#C[CH2][Sn]([c]1ccccc1)([c]1ccccc1)[c]1ccccc1` here?
The survivor count was 0 of 3.

What about the survivor count (dose: 200.0 mg/kg/injection, schedule: Q04DX002 (ip), vehicle: saline with Tween-80) of the same compound?
Its survivor count is 0 of 3.

What about the survivor count (dose: 400.0 mg/kg/injection, schedule: Q04DX002 (ip), vehicle: saline with Tween-80) of the same compound?
The survivor count was 0 of 3.
